What all share (assay): split reporter
Assay [1] concerns the target S. cerevisiae Bmh2, nanoBiT-tagged (S. cerevisiae) (UniProt P34730).
Assay [2] addresses T1, S. cerevisiae Swc4, LgBiT-tagged (S. cerevisiae) (UniProt P53201).
T1 sequence: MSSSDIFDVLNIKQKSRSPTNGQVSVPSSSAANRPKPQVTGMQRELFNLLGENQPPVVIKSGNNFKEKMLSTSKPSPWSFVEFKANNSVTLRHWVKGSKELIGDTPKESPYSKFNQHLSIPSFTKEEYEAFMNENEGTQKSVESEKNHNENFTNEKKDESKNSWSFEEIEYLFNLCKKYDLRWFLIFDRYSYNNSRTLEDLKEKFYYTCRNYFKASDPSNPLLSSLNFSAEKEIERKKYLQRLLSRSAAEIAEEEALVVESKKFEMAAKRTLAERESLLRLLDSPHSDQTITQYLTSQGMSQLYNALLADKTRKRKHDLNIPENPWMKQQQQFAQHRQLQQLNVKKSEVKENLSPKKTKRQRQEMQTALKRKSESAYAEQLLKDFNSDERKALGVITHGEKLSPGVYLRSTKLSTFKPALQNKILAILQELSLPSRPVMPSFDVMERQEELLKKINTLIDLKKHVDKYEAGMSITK

The chains behind the UniProt entries cited, without tags or fusion partners.
UniProt P34730: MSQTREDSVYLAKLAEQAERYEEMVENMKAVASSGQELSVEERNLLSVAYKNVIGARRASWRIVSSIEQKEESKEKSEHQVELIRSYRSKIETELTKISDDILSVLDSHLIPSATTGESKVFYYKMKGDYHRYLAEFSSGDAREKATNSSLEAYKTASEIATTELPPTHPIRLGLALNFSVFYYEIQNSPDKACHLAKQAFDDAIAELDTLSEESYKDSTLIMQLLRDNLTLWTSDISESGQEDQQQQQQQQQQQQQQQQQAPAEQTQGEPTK
UniProt P29311: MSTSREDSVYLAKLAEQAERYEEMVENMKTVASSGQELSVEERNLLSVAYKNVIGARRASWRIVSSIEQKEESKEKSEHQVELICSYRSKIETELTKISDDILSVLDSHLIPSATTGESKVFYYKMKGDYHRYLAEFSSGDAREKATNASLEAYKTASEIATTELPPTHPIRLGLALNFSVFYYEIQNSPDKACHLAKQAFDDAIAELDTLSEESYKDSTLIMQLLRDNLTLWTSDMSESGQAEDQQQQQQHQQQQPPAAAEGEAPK

Assay [3] concerns the target T2, S. cerevisiae Yaf9, nanoBiT-tagged (S. cerevisiae) (UniProt P53930).
T2 sequence: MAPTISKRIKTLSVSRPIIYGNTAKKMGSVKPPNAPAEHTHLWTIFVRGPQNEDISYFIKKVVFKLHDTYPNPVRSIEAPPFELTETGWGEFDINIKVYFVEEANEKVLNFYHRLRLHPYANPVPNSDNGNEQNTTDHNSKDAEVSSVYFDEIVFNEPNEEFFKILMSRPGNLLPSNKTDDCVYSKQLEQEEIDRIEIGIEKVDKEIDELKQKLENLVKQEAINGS

Results are given in words; binding and its absence hold for the method and conditions named. In cells and extracts the contact can be indirect. Some entries that bind do so weakly or less than the wild type. For part of these data: Tags and fused reporters may be left off the sequences shown.

For “S. cerevisiae Bmh1, nanoBiT-tagged (from UniProt P29311 1-267)”, the binding entry in assay [1] is listed as “binds”.

B1: S. cerevisiae Bdf1-SmBiT (protein, UniProt P35817 1-686)
chain: MTDITPVQNDVDVNGNNVNDDVSSNLKRPIDQGDPSNGLAEEENPANNQLHLKKARLDGDALTSSPAGLAENGIEGATLAANGENGYNATGSGAEDEQQGLKKEEGGQGTKQEDLDENSKQELPMEVPKEPAPAPPPEPDMNNLPQNPIPKHQQKHALLAIKAVKRLKDARPFLQPVDPVKLDIPFYFNYIKRPMDLSTIERKLNVGAYEVPEQITEDFNLMVNNSIKFNGPNAGISQMARNIQASFEKHMLNMPAKDAPPVIAKGRRSSAQEDAPIVIRRAQTHNGRPKRTIHPPKSKDIYPYESKKPKSKRLQQAMKFCQSVLKELMAKKHASYNYPFLEPVDPVSMNLPTYFDYVKEPMDLGTIAKKLNDWQYQTMEDFERDVRLVFKNCYTFNPDGTIVNMMGHRLEEVFNSKWADRPNLDDYDSDEDSRTQGDYDDYESEYSESDIDETIITNPAIQYLEEQLARMKVELQQLKKQELEKIRKERRLARGSKKRGKRSKGRSGSKNASSKGRRDKKNKLKTVVTYDMKRIITERINDLPTSKLERAIDIIKKSMPNISEDDEVELDLDTLDNHTILTLYNTFFRQYESSSGASNGLDGTSGVTRDASSLSPTSAGSRKRRSKALSQEEQSRQIEKIKNKLAILDSASPLSQNGSPGQIQSAAHNGFSSSSDDDVSSESEEE
B1: the binding result in assay [2] and in assay [3] was “binds” in each case.

The values above are taken from paper doi:10.1101/2023.02.03.527073.
